Results as given in PMC11357106.
No constants are given. Whether binding was seen depends on the method and setting. For some assays here: In cells and extracts the contact can be indirect. Some entries that bind do so weakly or less than the wild type. Where a sequence is shown, tags or fusion partners need not be part of it.

By UniProt entry, the sequences of proteins in these tests, tags left out.
UniProt Q9C5X9: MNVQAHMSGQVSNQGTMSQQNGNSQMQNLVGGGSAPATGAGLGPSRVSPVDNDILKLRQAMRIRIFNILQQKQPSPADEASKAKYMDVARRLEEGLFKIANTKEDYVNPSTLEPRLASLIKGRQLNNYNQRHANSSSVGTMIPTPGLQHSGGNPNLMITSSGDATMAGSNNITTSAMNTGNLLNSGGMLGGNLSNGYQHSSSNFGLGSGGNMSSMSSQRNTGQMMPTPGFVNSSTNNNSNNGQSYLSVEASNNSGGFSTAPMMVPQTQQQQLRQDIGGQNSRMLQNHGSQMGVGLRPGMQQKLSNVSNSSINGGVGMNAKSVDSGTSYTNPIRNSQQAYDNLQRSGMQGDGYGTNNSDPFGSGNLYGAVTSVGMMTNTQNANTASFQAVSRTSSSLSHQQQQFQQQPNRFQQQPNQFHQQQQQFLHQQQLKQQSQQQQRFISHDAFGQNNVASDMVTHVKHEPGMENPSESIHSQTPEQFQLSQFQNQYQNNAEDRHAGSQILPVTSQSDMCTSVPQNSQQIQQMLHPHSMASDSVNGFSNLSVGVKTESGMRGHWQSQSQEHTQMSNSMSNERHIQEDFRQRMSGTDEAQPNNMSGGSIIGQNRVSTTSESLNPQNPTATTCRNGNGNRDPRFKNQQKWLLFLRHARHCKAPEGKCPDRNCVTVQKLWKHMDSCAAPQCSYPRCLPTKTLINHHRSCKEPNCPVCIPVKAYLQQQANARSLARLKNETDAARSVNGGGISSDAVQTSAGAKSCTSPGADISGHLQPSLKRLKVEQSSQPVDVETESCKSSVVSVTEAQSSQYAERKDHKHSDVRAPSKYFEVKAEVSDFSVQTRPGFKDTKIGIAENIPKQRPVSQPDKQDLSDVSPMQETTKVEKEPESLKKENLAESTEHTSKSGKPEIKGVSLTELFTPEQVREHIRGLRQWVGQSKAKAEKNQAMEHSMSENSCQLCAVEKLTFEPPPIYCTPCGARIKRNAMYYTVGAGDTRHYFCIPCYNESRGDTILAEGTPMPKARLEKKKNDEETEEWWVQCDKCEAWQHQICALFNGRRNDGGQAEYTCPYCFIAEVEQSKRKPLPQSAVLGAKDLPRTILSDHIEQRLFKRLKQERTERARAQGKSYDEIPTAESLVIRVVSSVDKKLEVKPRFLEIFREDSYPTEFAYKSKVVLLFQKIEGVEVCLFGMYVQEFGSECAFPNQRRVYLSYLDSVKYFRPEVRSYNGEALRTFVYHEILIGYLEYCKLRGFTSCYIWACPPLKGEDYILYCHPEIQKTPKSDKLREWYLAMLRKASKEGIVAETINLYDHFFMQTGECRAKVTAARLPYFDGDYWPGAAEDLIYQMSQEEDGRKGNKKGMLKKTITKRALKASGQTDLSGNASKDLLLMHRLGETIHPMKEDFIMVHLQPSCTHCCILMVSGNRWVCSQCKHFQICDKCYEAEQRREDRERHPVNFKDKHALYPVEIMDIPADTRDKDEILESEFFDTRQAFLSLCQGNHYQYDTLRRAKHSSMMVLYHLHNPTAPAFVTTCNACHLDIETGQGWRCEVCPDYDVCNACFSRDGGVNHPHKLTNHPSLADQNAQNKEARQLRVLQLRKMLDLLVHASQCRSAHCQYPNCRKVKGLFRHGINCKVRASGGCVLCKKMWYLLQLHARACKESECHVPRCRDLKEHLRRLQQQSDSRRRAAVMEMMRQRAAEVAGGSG
UniProt Q6EVK6: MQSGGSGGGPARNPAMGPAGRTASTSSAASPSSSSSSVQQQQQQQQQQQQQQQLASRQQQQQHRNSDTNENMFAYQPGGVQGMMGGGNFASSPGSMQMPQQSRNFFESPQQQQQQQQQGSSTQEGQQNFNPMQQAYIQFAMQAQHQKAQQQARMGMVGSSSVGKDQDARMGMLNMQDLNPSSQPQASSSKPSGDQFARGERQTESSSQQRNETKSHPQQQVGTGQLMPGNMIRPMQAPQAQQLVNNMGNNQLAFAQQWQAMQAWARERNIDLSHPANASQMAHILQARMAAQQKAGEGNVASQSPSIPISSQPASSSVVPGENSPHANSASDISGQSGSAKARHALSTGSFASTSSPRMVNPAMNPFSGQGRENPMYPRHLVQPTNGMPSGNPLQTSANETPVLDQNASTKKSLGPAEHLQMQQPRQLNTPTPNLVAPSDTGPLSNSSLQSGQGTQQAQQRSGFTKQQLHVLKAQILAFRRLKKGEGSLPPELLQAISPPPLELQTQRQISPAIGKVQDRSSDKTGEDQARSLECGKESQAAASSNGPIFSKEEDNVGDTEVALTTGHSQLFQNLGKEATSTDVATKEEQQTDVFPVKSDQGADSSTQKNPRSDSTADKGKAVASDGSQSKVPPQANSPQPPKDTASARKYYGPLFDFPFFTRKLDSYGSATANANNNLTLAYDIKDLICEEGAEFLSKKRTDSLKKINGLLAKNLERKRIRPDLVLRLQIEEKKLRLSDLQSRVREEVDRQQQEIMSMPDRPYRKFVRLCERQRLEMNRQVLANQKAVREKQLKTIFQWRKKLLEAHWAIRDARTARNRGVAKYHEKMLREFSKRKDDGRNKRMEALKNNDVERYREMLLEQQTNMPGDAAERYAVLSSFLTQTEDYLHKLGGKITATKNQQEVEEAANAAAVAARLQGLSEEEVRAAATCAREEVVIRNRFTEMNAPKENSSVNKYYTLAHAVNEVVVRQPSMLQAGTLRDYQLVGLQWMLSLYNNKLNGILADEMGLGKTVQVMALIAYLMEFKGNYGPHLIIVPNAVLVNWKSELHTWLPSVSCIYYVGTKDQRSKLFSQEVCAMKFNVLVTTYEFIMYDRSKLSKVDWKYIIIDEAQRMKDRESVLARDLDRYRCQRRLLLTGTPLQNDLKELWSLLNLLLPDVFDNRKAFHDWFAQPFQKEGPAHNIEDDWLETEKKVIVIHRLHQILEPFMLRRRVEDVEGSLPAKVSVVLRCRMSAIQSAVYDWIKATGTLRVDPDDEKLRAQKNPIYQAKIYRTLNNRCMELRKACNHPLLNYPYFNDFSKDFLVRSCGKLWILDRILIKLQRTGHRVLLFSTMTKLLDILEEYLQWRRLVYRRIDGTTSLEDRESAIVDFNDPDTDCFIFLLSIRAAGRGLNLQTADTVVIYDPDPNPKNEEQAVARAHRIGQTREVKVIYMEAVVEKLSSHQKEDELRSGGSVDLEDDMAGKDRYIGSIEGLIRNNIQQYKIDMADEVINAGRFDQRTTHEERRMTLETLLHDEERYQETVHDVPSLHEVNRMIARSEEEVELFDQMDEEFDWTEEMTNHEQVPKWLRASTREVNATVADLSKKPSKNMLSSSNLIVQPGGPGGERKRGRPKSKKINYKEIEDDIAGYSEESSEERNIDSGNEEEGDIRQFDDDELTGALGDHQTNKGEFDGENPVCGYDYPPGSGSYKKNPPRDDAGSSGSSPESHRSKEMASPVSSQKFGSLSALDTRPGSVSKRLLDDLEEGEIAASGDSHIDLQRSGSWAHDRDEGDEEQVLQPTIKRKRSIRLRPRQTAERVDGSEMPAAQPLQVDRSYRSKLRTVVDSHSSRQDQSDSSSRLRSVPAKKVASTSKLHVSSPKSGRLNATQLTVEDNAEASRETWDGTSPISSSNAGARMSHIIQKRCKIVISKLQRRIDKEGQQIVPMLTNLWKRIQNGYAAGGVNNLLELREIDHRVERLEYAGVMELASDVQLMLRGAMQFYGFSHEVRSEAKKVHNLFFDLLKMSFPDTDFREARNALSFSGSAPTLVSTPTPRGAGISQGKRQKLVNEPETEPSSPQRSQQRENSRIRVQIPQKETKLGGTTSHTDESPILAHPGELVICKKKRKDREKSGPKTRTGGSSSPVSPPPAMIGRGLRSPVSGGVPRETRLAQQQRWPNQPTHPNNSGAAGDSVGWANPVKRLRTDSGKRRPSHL

T1: LUH as BD-fusion (yeast two-hybrid) (Arabidopsis thaliana) (UniProt O48847)
T1 sequence: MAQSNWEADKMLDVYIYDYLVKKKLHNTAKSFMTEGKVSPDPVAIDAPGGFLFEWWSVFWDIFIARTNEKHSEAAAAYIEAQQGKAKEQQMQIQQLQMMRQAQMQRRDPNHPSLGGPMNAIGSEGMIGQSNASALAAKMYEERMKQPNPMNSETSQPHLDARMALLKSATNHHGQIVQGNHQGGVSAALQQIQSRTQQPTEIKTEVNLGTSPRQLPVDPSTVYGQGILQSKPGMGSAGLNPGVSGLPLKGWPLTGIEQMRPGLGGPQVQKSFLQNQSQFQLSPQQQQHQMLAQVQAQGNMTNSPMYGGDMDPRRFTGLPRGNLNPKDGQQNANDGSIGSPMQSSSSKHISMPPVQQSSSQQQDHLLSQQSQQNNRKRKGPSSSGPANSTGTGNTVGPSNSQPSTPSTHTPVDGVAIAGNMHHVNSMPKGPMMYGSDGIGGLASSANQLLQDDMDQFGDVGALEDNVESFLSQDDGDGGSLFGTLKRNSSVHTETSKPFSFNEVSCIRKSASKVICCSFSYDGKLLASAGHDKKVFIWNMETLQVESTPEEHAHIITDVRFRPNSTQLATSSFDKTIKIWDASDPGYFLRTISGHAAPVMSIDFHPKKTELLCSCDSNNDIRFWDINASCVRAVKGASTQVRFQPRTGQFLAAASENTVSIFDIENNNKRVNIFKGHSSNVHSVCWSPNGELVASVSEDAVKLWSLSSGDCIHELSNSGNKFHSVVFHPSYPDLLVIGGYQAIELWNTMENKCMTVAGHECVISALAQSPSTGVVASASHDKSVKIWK


Assays:
[1] = molecular target: HAC1 as BD-fusion (yeast two-hybrid) (Arabidopsis thaliana) (UniProt Q9C5X9); test: two-hybrid; Matchmaker GAL4 system, yeast AH109; bHLHs as AD-fusions, SWI/SNF components and HAC1 as BD-fusions; growth on SD-LTHA, 3-AT added for SWI3C, BRIP2 and HAC1 to suppress autoactivation
[2] = molecular target: HAC1 as YFP-C fusion (BiFC) (Arabidopsis thaliana) (UniProt Q9C5X9); test: split reporter; BiFC with split Venus/YFP halves in N. benthamiana leaves, Agrobacterium infiltration with p19, imaged 2 days after infiltration; all 4 combinations of N- and C-terminal fusions
[3] = molecular target: T1, LUH as BD-fusion (yeast two-hybrid) (Arabidopsis thaliana); test: two-hybrid; Matchmaker GAL4 system, yeast AH109; bHLHs as AD-fusions, SWI/SNF components and HAC1 as BD-fusions; growth on SD-LTHA, 3-AT added for SWI3C, BRIP2 and HAC1 to suppress autoactivation
[4] = molecular target: BRM as BD-fusion (yeast two-hybrid) (Arabidopsis thaliana) (UniProt Q6EVK6); test: as above

binding [1]	binding [2]	binding [3]	Binder	also measured
binds			LUH as BD-fusion (yeast two-hybrid) (protein, UniProt O48847 1-787) MAQSNWEADKMLDVYIYDYLVKKKLHNTAKSFMTEGKVSPDPVAIDAPGGFLFEWWSVFWDIFIARTNEKHSEAAAAYIEAQQGKAKEQQMQIQQLQMMRQAQMQRRDPNHPSLGGPMNAIGSEGMIGQSNASALAAKMYEERMKQPNPMNSETSQPHLDARMALLKSATNHHGQIVQGNHQGGVSAALQQIQSRTQQPTEIKTEVNLGTSPRQLPVDPSTVYGQGILQSKPGMGSAGLNPGVSGLPLKGWPLTGIEQMRPGLGGPQVQKSFLQNQSQFQLSPQQQQHQMLAQVQAQGNMTNSPMYGGDMDPRRFTGLPRGNLNPKDGQQNANDGSIGSPMQSSSSKHISMPPVQQSSSQQQDHLLSQQSQQNNRKRKGPSSSGPANSTGTGNTVGPSNSQPSTPSTHTPVDGVAIAGNMHHVNSMPKGPMMYGSDGIGGLASSANQLLQDDMDQFGDVGALEDNVESFLSQDDGDGGSLFGTLKRNSSVHTETSKPFSFNEVSCIRKSASKVICCSFSYDGKLLASAGHDKKVFIWNMETLQVESTPEEHAHIITDVRFRPNSTQLATSSFDKTIKIWDASDPGYFLRTISGHAAPVMSIDFHPKKTELLCSCDSNNDIRFWDINASCVRAVKGASTQVRFQPRTGQFLAAASENTVSIFDIENNNKRVNIFKGHSSNVHSVCWSPNGELVASVSEDAVKLWSLSSGDCIHELSNSGNKFHSVVFHPSYPDLLVIGGYQAIELWNTMENKCMTVAGHECVISALAQSPSTGVVASASHDKSVKIWK	
binds weakly			MUTE as AD-fusion (yeast two-hybrid) (protein, UniProt Q9M8K6 1-202) MSHIAVERNRRRQMNEHLKSLRSLTPCFYIKRGDQASIIGGVIEFIKELQQLVQVLESKKRRKTLNRPSFPYDHQTIEPSSLGAATTRVPFSRIENVMTTSTFKEVGACCNSPHANVEAKISGSNVVLRVVSRRIVGQLVKIISVLEKLSFQVLHLNISSMEETVLYFFVVKIGLECHLSLEELTLEVQKSFVSDEVIVSTN	
	binds weakly		MUTE as YFP-N fusion (BiFC) (protein, UniProt Q9M8K6 1-202) MSHIAVERNRRRQMNEHLKSLRSLTPCFYIKRGDQASIIGGVIEFIKELQQLVQVLESKKRRKTLNRPSFPYDHQTIEPSSLGAATTRVPFSRIENVMTTSTFKEVGACCNSPHANVEAKISGSNVVLRVVSRRIVGQLVKIISVLEKLSFQVLHLNISSMEETVLYFFVVKIGLECHLSLEELTLEVQKSFVSDEVIVSTN	
		binds	SCRM as AD-fusion (yeast two-hybrid) (protein, UniProt Q9LSE2 1-494) MGLDGNNGGGVWLNGGGGEREENEEGSWGRNQEDGSSQFKPMLEGDWFSSNQPHPQDLQMLQNQPDFRYFGGFPFNPNDNLLLQHSIDSSSSCSPSQAFSLDPSQQNQFLSTNNNKGCLLNVPSSANPFDNAFEFGSESGFLNQIHAPISMGFGSLTQLGNRDLSSVPDFLSARSLLAPESNNNNTMLCGGFTAPLELEGFGSPANGGFVGNRAKVLKPLEVLASSGAQPTLFQKRAAMRQSSGSKMGNSESSGMRRFSDDGDMDETGIEVSGLNYESDEINESGKAAESVQIGGGGKGKKKGMPAKNLMAERRRRKKLNDRLYMLRSVVPKISKMDRASILGDAIDYLKELLQRINDLHNELESTPPGSLPPTSSSFHPLTPTPQTLSCRVKEELCPSSLPSPKGQQARVEVRLREGRAVNIHMFCGRRPGLLLATMKALDNLGLDVQQAVISCFNGFALDVFRAEQCQEGQEILPDQIKAVLFDTAGYAGMI	binding [4]: binds
binds weakly		binds	FAMA as AD-fusion (yeast two-hybrid) (protein, UniProt Q56YJ8 1-414) MDKDYSAPNFLGESSGGNDDNSSGMIDYMFNRNLQQQQKQSMPQQQQHQLSPSGFGATPFDKMNFSDVMQFADFGSKLALNQTRNQDDQETGIDPVYFLKFPVLNDKIEDHNQTQHLMPSHQTSQEGGECGGNIGNVFLEEKEDQDDDNDNNSVQLRFIGGEEEDRENKNVTKKEVKSKRKRARTSKTSEEVESQRMTHIAVERNRRKQMNEHLRVLRSLMPGSYVQRGDQASIIGGAIEFVRELEQLLQCLESQKRRRILGETGRDMTTTTTSSSSPITTVANQAQPLIITGNVTELEGGGGLREETAENKSCLADVEVKLLGFDAMIKILSRRRPGQLIKTIAALEDLHLSILHTNITTMEQTVLYSFNVKITSETRFTAEDIASSIQQIFSFIHANTNISGSSNLGNIVFT	
	binds weakly		FAMA as split-YFP fusion (BiFC) (protein, UniProt Q56YJ8 1-414) MDKDYSAPNFLGESSGGNDDNSSGMIDYMFNRNLQQQQKQSMPQQQQHQLSPSGFGATPFDKMNFSDVMQFADFGSKLALNQTRNQDDQETGIDPVYFLKFPVLNDKIEDHNQTQHLMPSHQTSQEGGECGGNIGNVFLEEKEDQDDDNDNNSVQLRFIGGEEEDRENKNVTKKEVKSKRKRARTSKTSEEVESQRMTHIAVERNRRKQMNEHLRVLRSLMPGSYVQRGDQASIIGGAIEFVRELEQLLQCLESQKRRRILGETGRDMTTTTTSSSSPITTVANQAQPLIITGNVTELEGGGGLREETAENKSCLADVEVKLLGFDAMIKILSRRRPGQLIKTIAALEDLHLSILHTNITTMEQTVLYSFNVKITSETRFTAEDIASSIQQIFSFIHANTNISGSSNLGNIVFT	
